The test concerns the target LPA1 (Homo sapiens, UniProt Q92633). As to the kind of experiment: LPA1 calcium flux assay (LPA1 functional antagonist assay). The format is cell-based. The following applies: read-out: LPA1 IC50; PathHunter CHO-K1 EDG2 β-Arrestin cell line; calcium indicator dye; stimulated with EC80 concentration of LPA; FLIPR Tetra.

By UniProt entry, the sequences of proteins in these tests, tags left out.
UniProt Q92633, whole entry: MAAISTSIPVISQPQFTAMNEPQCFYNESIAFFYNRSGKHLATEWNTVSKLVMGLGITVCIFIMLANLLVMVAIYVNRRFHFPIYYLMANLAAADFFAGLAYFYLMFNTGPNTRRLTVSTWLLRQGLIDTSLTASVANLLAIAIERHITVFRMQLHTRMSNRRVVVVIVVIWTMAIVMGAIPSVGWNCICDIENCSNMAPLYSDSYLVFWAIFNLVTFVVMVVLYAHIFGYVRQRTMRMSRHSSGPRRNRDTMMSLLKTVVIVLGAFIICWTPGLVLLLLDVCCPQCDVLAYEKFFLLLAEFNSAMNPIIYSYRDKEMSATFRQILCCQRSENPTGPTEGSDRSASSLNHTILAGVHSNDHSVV

SMILES strings stand for the structures. The match of structure and compound is tentative.

The term IC50 denotes the point on the concentration scale where inhibition reaches its midpoint.

As to `CCCc1cnc(=O)n(Cc2c(-c3ccc(N4C[C@@H](CC(=O)O)CC(F)(F)C4)c(CC)n3)nnn2C)c1`, the IC50 lay in the range of 0.5 to 5 µM.

The values are drawn from patent US12780800B1, “Triazole-pyridinyl substituted azacyclohexyl acetic acid compounds as LPA receptor antagonists” (Viva Star Biosciences Limited, priority 2021, dated 2022).
